# Reference: patent publication US6335319B1, “Treatment of obesity” (Metabolic Pharmaceuticals, Inc., priority 1994, dated 2002)
# “Also recorded” adds a separate entry of the source. Part of at least one peptide drawing is inferred or uncertain, most often the ends. For at least one compound, name, drawing or mass did not settle the structure. Positions of bridges follow the written chain, without caps; N, C: chain ends. Residues, ends and D or L forms follow the SMILES beside them.
# How the values were obtained:
# [1] = tested on: C57BL6J (ob/ob) mice; assay: Cumulative weight gain and body weight of obese mice, 18-day chronic treatment; type: in vivo, mouse; details: 200 μg/kg i.p. daily; for Final body wt.: mean ± SEM of 6
# [2] = tested on: C57BL6J (ob/ob) mice; assay: Food consumption of obese mice during 18-day treatment; type: in vivo, mouse; details: 200 μg/kg i.p. daily, 18 days
# [3] = tested on: C57BL6J (ob/ob) mice; assay: Determination of adipose tissue weight (epididymal or parametrical fat pads); type: in vivo, mouse; details: 200 μg/kg i.p. daily, 18 days
# [4] = tested on: adipose tissues of the C57BL6J (ob/ob) mice; assay: Ex vivo assay for lipogenic activity ([14C]-glucose incorporation into lipid); type: in vivo, mouse
# [5] = tested on: C57BL6J (ob/ob) mice; assay: Assays for plasma triglyceride and total cholesterol; type: in vivo, mouse
# [6] = target: T1, hGH receptor (Homo sapiens, UniProt P10912); assay: Competition binding of hGH and hGH 177-191 in BaF3 cells; details: BaF3 cells expressing the hGH receptor
# T1 construct: expressed in transfected cells; host or cells: BaF3 cells
# T1 sequence (P10912 19-638): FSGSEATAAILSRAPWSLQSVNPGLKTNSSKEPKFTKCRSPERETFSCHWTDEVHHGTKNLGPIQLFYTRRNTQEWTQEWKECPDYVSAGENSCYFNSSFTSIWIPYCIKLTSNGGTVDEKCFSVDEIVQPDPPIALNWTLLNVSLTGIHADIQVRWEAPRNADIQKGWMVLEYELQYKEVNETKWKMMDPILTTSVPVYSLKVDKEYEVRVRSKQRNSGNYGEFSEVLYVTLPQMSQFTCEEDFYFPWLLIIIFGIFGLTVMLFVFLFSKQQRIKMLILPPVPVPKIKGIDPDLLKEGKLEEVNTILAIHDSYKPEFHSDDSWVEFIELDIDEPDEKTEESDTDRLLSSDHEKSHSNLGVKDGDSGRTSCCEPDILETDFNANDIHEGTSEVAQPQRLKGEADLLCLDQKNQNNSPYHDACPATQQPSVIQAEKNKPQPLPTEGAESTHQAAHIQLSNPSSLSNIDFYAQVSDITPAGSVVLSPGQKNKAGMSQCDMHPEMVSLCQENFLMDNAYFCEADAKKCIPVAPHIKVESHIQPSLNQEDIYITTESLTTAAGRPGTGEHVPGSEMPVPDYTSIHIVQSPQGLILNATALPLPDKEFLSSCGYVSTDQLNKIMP
# [7] = tested on: BaF3 cells expressing the hGH receptor; assay: BaF3 proliferation assay (somatogenic activity); type: cell-based
# [8] = tested on: hormone-sensitive lipase; assay: Stimulation of hormone-sensitive lipase; type: biochemical; details: fat-reducing key enzyme
# [9] = tested on: acetyl CoA carboxylase; assay: Inhibition of acetyl CoA carboxylase; type: biochemical; details: fat-producing key enzyme
# [10] = tested on: diacylglycerol; assay: Production of cellular second-messenger diacylglycerol
# [11] = tested on: metabolic end-products; assay: Fat utilisation and fat production measured by metabolic end-products; details: in vitro as well as in vivo
smiles,measurement,setting,value
CC[C@H](C)[C@H](NC(=O)[C@H](CCCNC(=N)N)NC(=O)[C@@H](N)CC(C)C)C(=O)N[C@H](C(=O)N[C@@H](CCC(N)=O)C(=O)N[C@H]1CSSC[C@@H](C(=O)NCC(=O)N[C@@H](Cc2ccccc2)C(=O)O)NC(=O)[C@H](CO)NC(=O)CNC(=O)[C@H](CCC(=O)O)NC(=O)[C@H](C(C)C)NC(=O)[C@H](CO)NC(=O)[C@H](CCCNC(=N)N)NC1=O)C(C)C [hGH 177-191] (H-LRIVQCRSVEGSCGF-OH; disulfide 6-13),average daily body weight gain lower than control group,"[1]; both male and female treated ob/ob mice, 18 days",approximately 27%
same,Body wt. gain (difference between initial and final body weights),"[1]; female ob/ob mice, 18 days, control 5.4",4.0 g
same,Final body wt.,"[1]; female ob/ob mice, 18 days",52.2 g
same,cumulative body weight gain compared with controls,"[1]; male as well as female ob/ob mice, 18-day treatment period",clear reduction
same,Body wt. gain (difference between initial and final body weights),"[1]; male ob/ob mice, 18 days, control 3.9",2.9 g
same,Final body wt.,"[1]; male ob/ob mice, 18 days",51.5 g
same,daily body weight gain,"[1]; treated female ob/ob mice, 18 days, control 0.30 ±0.02",0.22 g/day
same,daily body weight gain,"[1]; treated male ob/ob mice, 18 days, control 0.22 ±0.03",0.16 ± 0.04 g/day
same,ratio of daily food consumption to daily body weight gain,"[2]; female ob/ob mice, other group 18±2",27±6
same,average daily food consumption versus controls,"[2]; male and female ob/ob mice, determined at 3-day intervals",No significance between the groups; also recorded: no significant difference
same,ratio of daily food consumption to daily body weight gain,"[2]; male ob/ob mice, other group 25±4",36±8
same,Adipose tissue (intact parametrical fat pads),"[3]; female ob/ob mice, control 3.67",3.26 g
same,reduction of adipose tissue weight compared with controls of the same sex,"[3]; female ob/ob mice, parametrical fat pads",≤ 12%
same,Adipose tissue (intact epididymal fat pads),"[3]; male ob/ob mice, control 3.18",2.52 g
same,reduction of adipose tissue weight compared with controls of the same sex,"[3]; male ob/ob mice, epididymal fat pads",up to 20%
same,"lipogenesis, [14C]-glucose incorporated into lipid","[4]; isolated adipose tissue of female ob/ob mice after 18-day treatment, control 3.36±0.13",2.99±0.21 pmol/mg tissue/min
same,"lipogenesis, [14C]-glucose incorporated into lipid","[4]; isolated adipose tissue of male ob/ob mice after 18-day treatment, control 2.80±0.33",2.33±0.21 pmol/mg tissue/min
same,plasma levels of cholesterol versus control,"[5]; female ob/ob mice, 18-day treatment",only slightly lower
same,total cholesterol in plasma,"[5]; male ob/ob mice, 12 hr after last dose of 18-day treatment, control 4.44±0.56",3.52 ± 0.39 mmol/L
same,plasma levels of triglyceride,"[5]; ob/ob mice, both sexes, 18-day treatment",did not influence
same,competition with hGH for the hGH receptor,[6],no apparent competition
same,activity in BaF3 proliferation assay,[7],no activity
same,effect on hormone-sensitive lipase,[8],effective in stimulating
same,effect on acetyl CoA carboxylase,[9],inhibiting
same,production of diacylglycerol,[10],activation
same,fat production,[11],reduced
same,fat utilisation,[11],accelerated
